PubChem BioAssay AID1671190 (National Center for Advancing Translational Sciences (NCATS), 2021)
The campaign covered roughly 580,000 compounds. About 6,100 (1.1%) were called active. Inconclusive means that the source gave no clear call. Such entries were picked first, then a sample of the others. The call rests on the fitted dose curve; in most records, active means well fitted inhibition curve with a large enough effect; inconclusive means small, poorly fitted or top-dose-only effect, or another doubt; inactive means no such curve, though single readings can be large or run the other way. A potency beside an inconclusive call is a rough fit, not a confirmed value.

Protein sequences, listed by entry. Tags and fused reporters are not part of them.
UniProt P18054, whole entry, looked up: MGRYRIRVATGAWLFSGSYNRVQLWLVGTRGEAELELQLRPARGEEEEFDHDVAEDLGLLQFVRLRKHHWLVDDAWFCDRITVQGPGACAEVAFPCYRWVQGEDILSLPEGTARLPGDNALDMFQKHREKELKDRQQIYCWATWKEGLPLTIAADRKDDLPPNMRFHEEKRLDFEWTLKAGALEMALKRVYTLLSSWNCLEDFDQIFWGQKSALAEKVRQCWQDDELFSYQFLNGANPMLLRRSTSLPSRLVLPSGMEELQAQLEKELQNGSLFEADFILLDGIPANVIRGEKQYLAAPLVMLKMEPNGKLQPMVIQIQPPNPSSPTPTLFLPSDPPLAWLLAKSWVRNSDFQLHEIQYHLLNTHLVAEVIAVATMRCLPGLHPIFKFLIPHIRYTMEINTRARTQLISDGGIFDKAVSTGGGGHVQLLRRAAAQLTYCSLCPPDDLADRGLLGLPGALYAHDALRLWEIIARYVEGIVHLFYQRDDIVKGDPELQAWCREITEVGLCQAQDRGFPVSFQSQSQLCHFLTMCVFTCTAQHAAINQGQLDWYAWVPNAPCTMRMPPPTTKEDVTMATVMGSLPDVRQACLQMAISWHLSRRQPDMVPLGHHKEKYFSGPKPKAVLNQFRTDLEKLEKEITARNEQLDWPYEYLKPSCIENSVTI

Biological target: Polyunsaturated fatty acid lipoxygenase ALOX12 (Homo sapiens) (UniProt P18054)
Assay: Primary qHTS assay for inhibitors of human arachidonate 12S-lipoxygenase (ALOX12): Round 2
Conditions: purified 12hLO, xylenol orange hydroperoxide absorbance; series mostly up to 108 µM
Procedure, shortened: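 Hydroperoxide product was detected by ferrous iron/xylenol orange as the 573 to 405 nm absorbance ratio. Arachidonic acid at 40 uM (final) was turned over for 30 min at room temperature by 150 nM human 12hLO, pH 7.0 Hepes buffer, after 15 min compound preincubation.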
Potency means the concentration at half of the fitted maximal effect.

SMILES | Potency
Cc1cc(C)n(C(=O)c2ccc(C)c(S(=O)(=O)N3CCOCC3)c2)n1 | inconclusive: 112 µM [inhibitor, single point]
COc1cc(NC(=S)NCCN2CCOCC2)cc(OC)c1OC | inactive
O=C(NC1CCCCC1)n1c(=O)oc2ccc(Cl)cc21 | inactive
O=C1C=C(c2ccc(C(=O)O)cc2)C[C@@H](c2ccc(F)cc2)C1 | inconclusive: 50.1 µM [inhibitor, partial curve, poor fit]
Cc1nc(N2CCN(C)CC2)c2sc(=S)n(-c3ccccc3)c2n1 | inactive
O=C(NC1=NN(c2ccccc2)CC1)Nc1ccccc1F | inconclusive: 44.7 µM [inhibitor, partial curve, poor fit]
CCOC(=O)c1cc2c(=O)n3cccc(C)c3nc2n(CCCOC)c1=NC(=O)c1cccnc1 | inactive
C/C(=N\NC(=O)c1cc(O)ccc1O)c1cccc(NC(=O)c2ccc(Cl)cc2)c1 | inconclusive: 17.8 µM [inhibitor, partial curve, poor fit]
COc1ccccc1N1CCN(C(=O)CCc2ccc(S(=O)(=O)NCC(C)C)cc2)CC1 | inactive
O=C(NCc1ccc(F)cc1)c1ccc(CS(=O)Cc2ccc(Cl)cc2)o1 (stereo not given) | inconclusive: 100 µM [inhibitor, partial curve, poor fit]
N#CC(C(=O)C(F)(F)F)c1ccccc1 (stereo not given) | inconclusive: 31.6 µM [inhibitor, single point]
CC(OC(=O)Cc1nn(C)c(=O)c2ccccc12)C(=O)NCc1ccccc1 (stereo not given) | inconclusive: 3.55 µM [inhibitor, full curve, poor fit]
CCn1nc(C(=O)N(Cc2ccc(OC)cc2)C(C)Cc2cccs2)c2ccccc2c1=O (stereo not given) | inconclusive: 89.1 µM [inhibitor, partial curve, poor fit]
CC(OC(=O)c1ccccc1-n1cnnn1)C(=O)Nc1ccc(N2CCOCC2)cc1 (stereo not given) | inconclusive: 39.8 µM [inhibitor, partial curve, poor fit]
O=C(C[n+]1ccc2ccccc2c1)c1ccc2ccc3ccccc3c2c1 | inconclusive: 39.8 µM [inhibitor, partial curve, poor fit]
CC(O)CN(CCC(N)=O)CCC(N)=O (stereo not given) | inconclusive: 0.1 µM [inhibitor, full curve, poor fit]
O=C1NC(=O)N(c2ccccc2)C1=O | inconclusive: 2.24 µM [inhibitor, full curve, poor fit]
Cc1cc(COc2ccccc2)oc1C(=O)O | inconclusive: 100 µM [inhibitor, single point]
Cc1nn(C)c(Oc2cccc(C(F)(F)F)c2)c1C#N | inactive
COc1cc(-c2nc3ccccn3c2/N=C/c2cccc(OC)c2O)ccc1O | inconclusive: 100 µM [inhibitor, single point]
O=C(C1CCCC1)N1CCC(C(=O)N2CCCN(Cc3cccnc3)CC2)CC1 | inconclusive: 3.16 µM [inhibitor, full curve, poor fit]
CCc1ccc(CNC(=O)C2CCCN(c3nnc(C)c4c(C)n(-c5ccc(OC)cc5)nc34)C2)cc1 (stereo not given) | inactive

For reference, two of the compounds above:
SMILES | Potency
CC(OC(=O)Cc1nn(C)c(=O)c2ccccc12)C(=O)NCc1ccccc1 (stereo not given) | inconclusive: 3.55 µM [inhibitor, full curve, poor fit]
CCn1nc(C(=O)N(Cc2ccc(OC)cc2)C(C)Cc2cccs2)c2ccccc2c1=O (stereo not given) | inconclusive: 89.1 µM [inhibitor, partial curve, poor fit]

Further entries:

SMILES | Potency
CC(CC(=O)O)CC(=O)Nc1cc(C(F)(F)F)cc(C(F)(F)F)c1 (stereo not given) | inconclusive: 112 µM [inhibitor, partial curve, poor fit]
CN(Cc1ccccc1)C(=O)c1cccc(NC(=O)Cc2ccc(NC(=O)C3CCN(C(=O)C4CCCCC4)CC3)cc2)c1 | inconclusive: 39.8 µM [inhibitor, single point]
COc1ccc(OC)c(NC(=O)COC(=O)c2ccc(OC)c(S(=O)(=O)N3CCCC3)c2)c1 | inactive
Cc1cc(C)cc(N2CCN(C(=O)N3CCOCC3)CC2)c1 | inconclusive: 3.16 µM [inhibitor, full curve, poor fit]
NS(=O)(=O)c1ccc(N2N=C(c3ccccc3)CC2c2cccc(Cl)c2)cc1 (stereo not given) | inconclusive: 14.1 µM [inhibitor, partial curve]
COc1cccc(CN2CCc3c(cc(C(=O)Nc4ccccc4OC)n3C)C2)c1 | inactive
COc1cccc(CC2(CO)CCCN(Cc3[nH]c4ccc(C)cc4c3C)C2)c1 (stereo not given) | inconclusive: 44.7 µM [inhibitor, partial curve, poor fit]
COc1ccc(Cc2nnc(SCC(=O)NC3CCCCC3)n2C)cc1 | inconclusive: 17.8 µM [inhibitor, partial curve, poor fit]
Cn1c(=O)[nH]c(=O)c2c1nc(Sc1ccccc1)n2Cc1ccc(Cl)cc1 | inactive
O=C(Nc1nc(-c2ccc(Cl)cc2)cs1)C1CCN(C(=O)c2ccoc2)CC1 | inconclusive: 70.8 µM [inhibitor, partial curve, poor fit]
Cc1noc(C)c1NC(=O)N(C)C[C@H]1Oc2ccc(NS(=O)(=O)c3ccccc3)cc2C(=O)N([C@H](C)CO)C[C@@H]1C | inconclusive: 126 µM [inhibitor, single point]
COC(=O)[C@@H]1[C@@H](CO)[C@@H]2Cn3c(cccc3=O)[C@@H]2N1C(=O)C1CCC1 | inconclusive: 126 µM [inhibitor, single point]
CCCCN(Cc1ccccc1)c1ccc(C(=O)O)cc1NS(=O)(=O)c1ccc(CC(C)C)cc1 | active: 14.1 µM
CCCn1nnnc1NCc1cc(Br)ccc1OC | inactive
CCOc1cc(/C=C/c2cccc[n+]2C)ccc1OCC(=O)Nc1ccc(C)cc1 | inconclusive: 79.4 µM [inhibitor, partial curve, poor fit]
N#Cc1cccc(NC(=O)CCC(=O)c2ccc3c(c2)CCC3)c1 | inconclusive: 44.7 µM [inhibitor, partial curve]
Cc1ccc([S+](=O)([O-])N2CCn3c(nnc3-c3ccccc3)C2)cc1 | inconclusive: 79.4 µM [inhibitor, partial curve, poor fit]
CCOc1ccccc1C(=O)N(C)Cc1cc2cc(OC)ccc2[nH]c1=O | inactive
CCCCOc1ccc(C(=O)NCCc2csc(-c3cccc(F)c3)n2)cc1 | inconclusive: 126 µM [inhibitor, single point]
CN(C)S(=O)(=O)c1ccc(Cl)c2ccccc12 | inactive
Cc1ccc(C(=O)C2CCN(Cc3ccc(C#N)cc3)CC2)c(C)c1 | inconclusive: 5.62 µM [inhibitor, partial curve, poor fit]
C=CCCCCCCCCc1nc(=S)[nH][nH]1 | inconclusive: 44.7 µM [inhibitor, partial curve, poor fit]

SMILES | Potency
COc1cc(/C=C2\SC(c3ccccc3)=NC2=O)cc(Cl)c1O | active: 8.91 µM
COCCNc1ncnc2ccc(-c3ccc(N(C)C)cc3)cc12 | inconclusive: 44.7 µM [inhibitor, partial curve, poor fit]
COc1ccc(CN2CCc3oc(C)c(C(=O)N4CCCCCC4)c3C2)cc1 | inconclusive: 10 µM [inhibitor, full curve]
CCOc1cc(/C=C2\N=C(C)OC2=O)cc(Br)c1OCCc1ccccc1 | inconclusive: 44.7 µM [inhibitor, partial curve, poor fit]
CC(CN1CCN(C)CC1)OC(=O)c1ccc(Cl)cc1Cl (stereo not given) | inconclusive: 7.08 µM [inhibitor, full curve]
Nc1ccc(C(=O)C(=O)c2ccc(N)cc2)cc1 | inactive
O=C(OCC(=O)C12CC3CC(CC(C3)C1)C2)c1ccccc1Cl | inconclusive: 126 µM [inhibitor, partial curve, poor fit]
Cc1csc(C(C#N)C(=O)CSc2ccc(C(F)(F)F)cn2)n1 (stereo not given) | inconclusive: 100 µM [inhibitor, single point]
COC(=O)C1=C(C)N(Cc2ccccc2)C(=NCCN2CCOCC2)N[C@H]1CCc1ccccc1 | inconclusive: 70.8 µM [inhibitor, partial curve, poor fit]
CCCCCNC(=O)c1cc(-c2ccc(OC)cc2)nc2ccccc12 | active: 31.6 µM
O=C(O)CSc1ncnc2c1sc1nc(-c3ccccc3)c3c(c12)CCC3 | inactive
Cc1ccc(CNC(=O)N2CCn3nnc(CCC(=O)NC4CC4)c3C2)cc1 | inactive
COc1ccc(NC(=O)CN(C)C(=O)c2cc(-c3ccc(C)o3)nc3ccccc23)cc1 | inconclusive: 31.6 µM [inhibitor, partial curve, poor fit]
CCOC(=O)COc1c(Br)cc(/C=C2/NC(=O)NC2=O)cc1Br | inconclusive: 89.1 µM [inhibitor, single point]
CCCc1csc(N)c1C(=O)OCC | active: 7.94 µM
COc1ccc2c(COC(=O)CC3Sc4ccccc4NC3=O)cc(=O)oc2c1 (stereo not given) | inconclusive: 50.1 µM [inhibitor, partial curve, poor fit]
CC(C)(C)c1ccc(CN(Cc2ccccc2)C(=S)Nc2ccc(Br)cc2)cc1 | inconclusive: 25.1 µM [inhibitor, partial curve]
O=C(O)CCNC(=O)N1CCCC(c2cccc(C(=O)O)c2)C1 (stereo not given) | inactive
COc1ccc(OCC(=O)N2CCC(c3nc4ccccc4s3)CC2)cc1 | inconclusive: 89.1 µM [inhibitor, single point]
Cc1ccc2c(c1)NC(SCC(=O)Nc1cccc(Br)c1)=NS2(=O)=O | inconclusive: 56.2 µM [inhibitor, partial curve, poor fit]
COc1ccc(/C(O)=C2/C(=O)C(=O)N(CCCN3CCOCC3)C2c2ccc(N(C)C)cc2)cc1 (stereo not given) | inconclusive: 39.8 µM [inhibitor, partial curve, poor fit]
